Assay results published in US20170291905A1, “ARGININE METHYLTRANSFERASE INHIBITORS AND USES THEREOF” (Epizyme, Inc., priority 2014, published 2017).
The match of structure and compound is tentative.

By UniProt entry, the sequences of proteins in these tests, tags left out.
UniProt Q9NR22, whole entry: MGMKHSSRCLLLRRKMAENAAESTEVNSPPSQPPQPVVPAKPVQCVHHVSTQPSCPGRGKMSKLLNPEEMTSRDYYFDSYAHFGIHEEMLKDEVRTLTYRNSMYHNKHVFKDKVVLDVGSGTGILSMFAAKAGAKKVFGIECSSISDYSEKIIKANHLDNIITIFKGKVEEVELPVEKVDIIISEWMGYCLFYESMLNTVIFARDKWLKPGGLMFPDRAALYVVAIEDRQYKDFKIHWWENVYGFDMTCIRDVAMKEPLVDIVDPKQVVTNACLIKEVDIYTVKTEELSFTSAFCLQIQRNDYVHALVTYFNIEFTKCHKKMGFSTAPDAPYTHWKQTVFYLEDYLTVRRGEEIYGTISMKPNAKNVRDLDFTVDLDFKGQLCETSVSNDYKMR

Biological target: full-length human PRMT8 isoform 1 (Homo sapiens, UniProt Q9NR22)
Assay: PRMT8 biochemical assay (3H-SAM Flashplate, histone H4 31-45 peptide)
Settings: read-out: PRMT8 IC50; 1.5 nM PRMT8, 30 min preincubation, 150 nM peptide
Source text: S-adenosylmethionine (SAM), S-adenosylhomocysteine (SAH), bicine, Tween20, dimethylsulfoxide (DMSO), bovine skin gelatin (BSG), isopropyl-β-D-thiogalactopyranoside (IPTG), and Tris(2-carboxyethyl)phosphine hydrochloride solution (TCEP) were purchased from Sigma-Aldrich at the highest level of purity possible. ^3H-SAM was purchase from American Radiolabeled Chemicals with a specific activity of 80 Ci/mmol. 384-well streptavidin Flashplates were purchased from PerkinElmer.
Peptide representative of human histone H4 residues 31-45 was synthesized with an N-terminal linker-affinity tag motif and a C-terminal amide cap by 21st Century Biochemicals. The peptide was purified by high-performance liquid chromatography (HPLC) to greater than 95% purity and confirmed by liquid chromatography mass spectrometry (LC-MS). The sequence was Biot-Ahx-KPAIRRLARRGGVKR-amide (SEQ ID NO.:8).
Full-length human PRMT8 (NM_019854.4) isoform 1 transcript clone was amplified from an HEK 293 cDNA library and subcloned into pGEX-4T-1 (GE Life Sciences). The resulting construct encodes an N-terminal GST tag and a thrombin cleavage sequence
E. coli (BL21(DE3) Gold, Stratagene) made competent by the CaCl2 method were transformed with the PRMT8 construct and ampicillin selection. Protein over-expression was accomplished by growing the PRMT8 expressing E. coli clone and inducing expression with 0.3 mM IPTG at 16° C. […]

IC50: 11.4 nM
SMILES: CNCCN(C)Cc1ncsc1[C@H]1CC[C@@]2(CC1)CC(C)(C)CO2 [compound 83]
